According to PubChem BioAssay AID624156 (Broad Institute, 2012):
Hit rate of the full screen: of about 46,000 compounds, about 900 (2%) were called active. The inconclusive results got no clear call from the source; some entries with a clear call stand among them for comparison. Cut-off read from the data, not from the text of the source: active = ROS induction above about 79% (passing the limit was not always enough); inconclusive = no clear call, values can overlap the other calls.

Test: ROS inducers in U2OS cancer cells, primary screen, cell-based, H2DCF-DA fluorescence (AID 624156);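 note: 0% = DMSO vehicle median and 100% = reference compound median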
Details: at 10 µM, active compounds read high

Compound	ROS induction (% of piperlongumine)
COc1ccc(CCNc2ncnc3sc4c(c23)CCCC4)cc1	inconclusive: 84.4%
Cc1noc(C)c1S(=O)(=O)Nc1ccc2c(c1)CC(=O)N([C@H](C)CO)C[C@@H](C)[C@@H](CN(C)S(=O)(=O)c1ccc(F)cc1)O2	inactive: 4.61%
CCc1n[nH]c(=S)c2cc3sccc3n12	inactive: 13.5%
O=C(Nc1ccc(I)cc1C(=O)NCc1cccnc1)c1ccccc1Cl	inconclusive: 243%
C[C@H]1CN([C@@H](C)CO)C(=O)c2cccc(NC(=O)c3ccncc3)c2O[C@@H]1CN(C)Cc1ccc(-c2ccccc2)cc1	inconclusive: 96.1%
CCOC(=O)N1CCN(c2cc(C(F)(F)F)nc3c(Cl)cccc23)CC1	inconclusive: 82.9%
COc1ccc(C2=NN(S(C)(=O)=O)C(c3ccccc3OC)C2)cc1 (centres undefined)	active: 164%
COc1ccc(S(=O)(=O)N(C)C[C@@H]2Oc3ccc(NC(=O)c4ccncc4)cc3C(=O)N([C@H](C)CO)C[C@H]2C)cc1	inactive: 11.5%
O=C1O[C@@H](c2ccccc2)[C@@H](c2ccccc2)N2[C@@H](c3ccc(OCCO)cc3)[C@]3(C(=O)Nc4ccccc43)[C@@H](C(=O)N3CCN(c4ncccn4)CC3)[C@H]12	active: 96.5%
O=C(O)c1ccc(S(=O)(=O)N2CCCC3CCCCC32)cc1 (centres undefined)	inactive: -10.5%
C[C@H](CO)N1C[C@H](C)[C@H](CN(C)S(=O)(=O)c2cn(C)cn2)Oc2ncc(C#CCN(C)C)cc2C1=O	inactive: 4.19%
CCOC(=O)c1cnc2c(c(C)nn2C)c1Sc1nnc(SC)s1	inconclusive: 83.4%
Cc1ccc(S(=O)(=O)N(C)C[C@@H]2Oc3ncc(-c4cc5ccccc5o4)cc3C(=O)N([C@H](C)CO)C[C@@H]2C)cc1	inconclusive: 79.6%
COC(=O)c1c(NC(=O)C2CC(=O)NN2Cc2ccccc2)sc(C)c1C (centres undefined)	inconclusive: 82.1%
O=C(COc1ccc(I)cc1)Nc1cc(C(=O)O)cc(C(=O)O)c1	inactive: -17.9%
Fc1ccc(Nc2nc(Nc3ccc(F)cc3)nc(N3CCCCC3)n2)cc1	inactive: 24.1%
COC(=O)C(CC#Cc1ccc2c(c1)[C@]1(C(=O)N2)[C@H](c2ccccc2OCCO)N2[C@H](c3ccccc3)[C@H](c3ccccc3)OC(=O)[C@H]2[C@@H]1C(=O)NC[C@H](O)c1ccccc1)C(=O)OC	active: 205%
COc1ccc([Si](C)(C)[C@H]2[C@H](CCO)O[C@@]3(C(=O)N(Cc4cccc(NC(C)=O)c4)c4ccccc43)[C@@H]2C)cc1	inconclusive: 80.9%
Cc1ccc(S(=O)(=O)Nc2ccc3c(c2)C(=O)N([C@H](C)CO)C[C@H](C)[C@@H](CN(C)Cc2ccc4c(c2)OCO4)OCCCC[C@@H](C)O3)cc1	active: 95.2%

Some of the entries so far, as a markdown table:

| Compound | ROS induction (% of piperlongumine) |
| --- | --- |
| CCOC(=O)N1CCN(c2cc(C(F)(F)F)nc3c(Cl)cccc23)CC1 | inconclusive: 82.9% |
| Cc1ccc(S(=O)(=O)N(C)C[C@@H]2Oc3ncc(-c4cc5ccccc5o4)cc3C(=O)N([C@H](C)CO)C[C@@H]2C)cc1 | inconclusive: 79.6% |
